Target: T1, P2X7 (Homo sapiens, UniProt Q99572)
T1 construct: expressed in transfected cells
T1 sequence (Q99572 1-595): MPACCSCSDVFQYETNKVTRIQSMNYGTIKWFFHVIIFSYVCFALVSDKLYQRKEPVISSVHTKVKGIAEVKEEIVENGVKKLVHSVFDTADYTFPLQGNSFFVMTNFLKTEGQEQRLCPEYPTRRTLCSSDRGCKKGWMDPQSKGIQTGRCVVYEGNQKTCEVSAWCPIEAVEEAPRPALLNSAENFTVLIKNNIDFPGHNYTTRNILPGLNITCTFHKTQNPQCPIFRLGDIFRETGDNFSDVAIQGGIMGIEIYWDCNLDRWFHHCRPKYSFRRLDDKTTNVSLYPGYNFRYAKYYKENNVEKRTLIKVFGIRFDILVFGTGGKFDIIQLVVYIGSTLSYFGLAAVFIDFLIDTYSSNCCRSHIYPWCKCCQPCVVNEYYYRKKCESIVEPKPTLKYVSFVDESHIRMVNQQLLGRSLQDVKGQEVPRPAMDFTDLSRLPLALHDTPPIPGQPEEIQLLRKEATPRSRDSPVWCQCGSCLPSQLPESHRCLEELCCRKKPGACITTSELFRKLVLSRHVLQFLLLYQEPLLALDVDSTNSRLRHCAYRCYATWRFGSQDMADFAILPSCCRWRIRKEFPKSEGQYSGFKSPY
Assay: ATP-induced YO-PRO-1 dye uptake in HEK-hP2X7 cells
Format: cell-based
Conditions: screen for potential negative allosteric modulators; compound 10 µM injected 60 s before ATP
Method: HEK-hP2X7 or HEK-hP2X4 cells were plated at 2.5 × 10^4 cells per well (100 µL volume) the day before experiments into poly-D-lysine (Merck Millipore) coated 96-well plates (NUNC, Fisher Scientific #167-008). The membrane impermeant dye YO-PRO-1 iodide (Life Technologies, Fisher Scientific) was used at a final concentration of 2 µM in low divalent buffer (145 mM NaCl, 5 mM KCl, 0.2 mM CaCl2, 13 mM glucose, 10 mM HEPES, pH 7.3, osm 300–310). Media were removed from the plate, and 90 µL of YO-PRO-1 buffer was added per well. Plates were warmed to 37 °C for 5 min before recording. Data was acquired on a Flexstation 3 plate reader (Molecular Devices) using excitation wavelength 490 nm, emission wavelength 520 nm, and six reads per well (PMT medium). […] […] Pipette height was set to 80 µL and the rate of injection was 4.
YO-PRO-1 dye uptake assay data is plotted as a percentage of control where control responses are measured in the absence of plant extract. Cell viability data is plotted as a percentage of control or background-corrected fluorescence data. Concentration–response graphs were plotted using GraphPad Prism v6 with a non-linear regression fit (variable slope). […] Statistical differences were determined by one-way ANOVA statistical tests performed using GraphPad Prism v6 with Dunnett’s multiple comparison post hoc test. […]

Structure (SMILES): COc1c(O)cc2c(c1OC)-c1ccc(OC)c(=O)cc1[C@@H](NC(C)=O)CC2 [3-desmethylcolchicine]
- P2X7 response (% of control): 49.33 % of control

Reference: publication PMC12062478, “Screening herbal and natural product libraries to aid discovery of novel allosteric modulators of human P2X7” (Purinergic Signalling, 2024)
